According to article PMC12418378:
For some assays here: Negatives hold for the conditions tested.

Chains of the proteins cited; added tags and fusions are not shown. Residues count along the entry.
UniProt O60016, 1-62: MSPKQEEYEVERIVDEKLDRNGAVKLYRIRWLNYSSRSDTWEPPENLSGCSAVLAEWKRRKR
UniProt O60016, 192-490: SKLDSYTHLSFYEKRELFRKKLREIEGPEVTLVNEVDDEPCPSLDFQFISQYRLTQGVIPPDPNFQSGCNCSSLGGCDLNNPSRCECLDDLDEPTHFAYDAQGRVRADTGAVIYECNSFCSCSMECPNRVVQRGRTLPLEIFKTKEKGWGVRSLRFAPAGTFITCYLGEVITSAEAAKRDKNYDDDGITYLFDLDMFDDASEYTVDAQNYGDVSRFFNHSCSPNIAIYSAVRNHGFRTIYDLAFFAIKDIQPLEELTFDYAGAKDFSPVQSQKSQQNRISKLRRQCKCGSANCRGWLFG
UniProt O60016, 127-191: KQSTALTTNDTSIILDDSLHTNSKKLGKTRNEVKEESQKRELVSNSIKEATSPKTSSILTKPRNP
UniProt O60016, whole entry: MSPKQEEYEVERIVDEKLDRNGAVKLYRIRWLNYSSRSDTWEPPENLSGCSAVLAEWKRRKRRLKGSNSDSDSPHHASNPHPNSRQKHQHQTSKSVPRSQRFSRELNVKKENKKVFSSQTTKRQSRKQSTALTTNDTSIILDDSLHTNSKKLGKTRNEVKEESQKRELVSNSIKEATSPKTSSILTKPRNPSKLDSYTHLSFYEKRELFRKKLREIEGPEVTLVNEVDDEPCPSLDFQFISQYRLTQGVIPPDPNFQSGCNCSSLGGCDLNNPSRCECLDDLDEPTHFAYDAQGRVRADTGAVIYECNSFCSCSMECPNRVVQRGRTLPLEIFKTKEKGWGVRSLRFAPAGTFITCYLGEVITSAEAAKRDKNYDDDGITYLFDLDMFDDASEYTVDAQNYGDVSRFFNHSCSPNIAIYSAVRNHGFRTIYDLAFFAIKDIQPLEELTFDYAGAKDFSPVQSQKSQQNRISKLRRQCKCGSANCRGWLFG

How the values were obtained:
Assay in all cases: EMSA
[1] = target: GST-Clr4-CD (N1) (Schizosaccharomyces pombe) (UniProt O60016); conditions: EMSA: 20 mM Tris-HCl pH 7.5, 1 mM DTT, 0.1 mg/ml BSA; RNA on ice 30 min; DNA and nucleosomes 37 C 15 min; 5% native PAGE, 0.5x TBE; recombinant protein; residues 1-62; protein details: GST; label: none (SYBR Gold stain); probe letters rebuilt from the primers and the genome
[2] = target: GST-Clr4-C (C1) (Schizosaccharomyces pombe) (UniProt O60016); conditions: EMSA: 20 mM Tris-HCl pH 7.5, 1 mM DTT, 0.1 mg/ml BSA; RNA on ice 30 min; DNA and nucleosomes 37 C 15 min; 5% native PAGE, 0.5x TBE; recombinant protein; residues 192-490; protein details: GST; label: none (SYBR Gold stain); probe letters rebuilt from the primers and the genome
[3] = target: GST-Clr4-N8 (Schizosaccharomyces pombe) (UniProt O60016); conditions: EMSA: 20 mM Tris-HCl pH 7.5, 1 mM DTT, 0.1 mg/ml BSA; RNA on ice 30 min; DNA and nucleosomes 37 C 15 min; 5% native PAGE, 0.5x TBE; recombinant protein; residues 127-191; protein details: GST; label: none (SYBR Gold stain); probe letters rebuilt from the primers and the genome
[4] = target: Clr4 full-length WT (Schizosaccharomyces pombe) (UniProt O60016); conditions: EMSA: 20 mM Tris-HCl pH 7.5, 1 mM DTT, 0.1 mg/ml BSA; RNA on ice 30 min; DNA and nucleosomes 37 C 15 min; 5% native PAGE, 0.5x TBE; recombinant protein; residues 1-490; protein details: His-SUMO removed by Ulp1 (pCold-SUMO-TEV); label: none (SYBR Gold stain); probe letters rebuilt from the primers and the …

Row | Sequence | binding result [1] | binding result [2] | binding result [3] | binding result [4]
1 | GGGAGCCUCAAGUGACUGCAUUAAAGCAUAAUACCGAAGCACUGACAUAACAGAGAGGUUCAGAAAGGAAUUUAAAGAUUGACUUUUUCGACAAACUUCAUGUUACAAGUCUUAUCGUUUGUGUUUAUAAAUCAUCAGCCUCUCUCUAUAUCUCUAUAUCUCUAUAUAUCAGAUAUAAAGAUGCAAGUUUUGAAGUAGACAUUCCGCACAAAGUCUAGUACACCAUGUCUCUUGUGCUCAGGCUGGUUGUCCUGCAAAAAUGUACAACAGGCAAAUGGAUGUUUCAUCAAAGAUGGACUCCUUUGUCUCAUACUUAUUGAUGGCGAAGCUAGAUCCGUUAUCAUCUUGAGAAAACACAUCGUUGUCUUCAGAGUAGCCC [pericentromeric repeat RNA, 379 nt] | no binding | no binding | no binding | binds
2 | GGGUACCUUUGGGACGUGGUCUCUUGCUUUUGGCUGAAAUGUCUUCCAAAGGCUCUUUGGCUACUGGUUCCUACACAGAGAAAACCUUAGAAUGGUUUGAGAAGCAUACCGAUUUUUGCUUUGGCUUUAUAGCUGGUCGUCGAUUUCCUAACCUUCAAAGCGACUACAUAACUAUGUCCCCUGGUAUCGGCUUGGAUGUUAAAGGAGACGGGCUGGGACAGCAAUAUCGUACUCCUGAAGAAGUGAUUGUAAACUGCGGUAGCGAUAUCAUCAUUGUUGGUCGUGGAGUCUAUGGAGCUGGUCG [ura4+ RNA, 304 nt] |  |  |  | binds
